Experimental data reported in publication doi:10.1101/2025.03.09.642289.

Sequences of proteins named here, by UniProt entry; tags and fusion partners are left off.
UniProt Q9Z265: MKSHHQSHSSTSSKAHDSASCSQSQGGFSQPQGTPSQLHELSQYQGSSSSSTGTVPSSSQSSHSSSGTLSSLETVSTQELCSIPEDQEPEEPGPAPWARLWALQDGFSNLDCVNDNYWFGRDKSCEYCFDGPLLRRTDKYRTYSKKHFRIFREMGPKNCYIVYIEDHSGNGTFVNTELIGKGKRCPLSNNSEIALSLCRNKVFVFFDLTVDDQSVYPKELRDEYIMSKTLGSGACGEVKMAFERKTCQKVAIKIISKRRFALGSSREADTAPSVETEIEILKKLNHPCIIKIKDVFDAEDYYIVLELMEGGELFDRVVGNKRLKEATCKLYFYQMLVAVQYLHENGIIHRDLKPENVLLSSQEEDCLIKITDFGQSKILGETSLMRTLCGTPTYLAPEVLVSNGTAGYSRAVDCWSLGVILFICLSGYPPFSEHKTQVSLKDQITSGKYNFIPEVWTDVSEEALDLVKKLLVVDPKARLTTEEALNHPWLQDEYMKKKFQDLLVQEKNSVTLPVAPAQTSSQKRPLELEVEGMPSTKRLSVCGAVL
UniProt Q8BPN8: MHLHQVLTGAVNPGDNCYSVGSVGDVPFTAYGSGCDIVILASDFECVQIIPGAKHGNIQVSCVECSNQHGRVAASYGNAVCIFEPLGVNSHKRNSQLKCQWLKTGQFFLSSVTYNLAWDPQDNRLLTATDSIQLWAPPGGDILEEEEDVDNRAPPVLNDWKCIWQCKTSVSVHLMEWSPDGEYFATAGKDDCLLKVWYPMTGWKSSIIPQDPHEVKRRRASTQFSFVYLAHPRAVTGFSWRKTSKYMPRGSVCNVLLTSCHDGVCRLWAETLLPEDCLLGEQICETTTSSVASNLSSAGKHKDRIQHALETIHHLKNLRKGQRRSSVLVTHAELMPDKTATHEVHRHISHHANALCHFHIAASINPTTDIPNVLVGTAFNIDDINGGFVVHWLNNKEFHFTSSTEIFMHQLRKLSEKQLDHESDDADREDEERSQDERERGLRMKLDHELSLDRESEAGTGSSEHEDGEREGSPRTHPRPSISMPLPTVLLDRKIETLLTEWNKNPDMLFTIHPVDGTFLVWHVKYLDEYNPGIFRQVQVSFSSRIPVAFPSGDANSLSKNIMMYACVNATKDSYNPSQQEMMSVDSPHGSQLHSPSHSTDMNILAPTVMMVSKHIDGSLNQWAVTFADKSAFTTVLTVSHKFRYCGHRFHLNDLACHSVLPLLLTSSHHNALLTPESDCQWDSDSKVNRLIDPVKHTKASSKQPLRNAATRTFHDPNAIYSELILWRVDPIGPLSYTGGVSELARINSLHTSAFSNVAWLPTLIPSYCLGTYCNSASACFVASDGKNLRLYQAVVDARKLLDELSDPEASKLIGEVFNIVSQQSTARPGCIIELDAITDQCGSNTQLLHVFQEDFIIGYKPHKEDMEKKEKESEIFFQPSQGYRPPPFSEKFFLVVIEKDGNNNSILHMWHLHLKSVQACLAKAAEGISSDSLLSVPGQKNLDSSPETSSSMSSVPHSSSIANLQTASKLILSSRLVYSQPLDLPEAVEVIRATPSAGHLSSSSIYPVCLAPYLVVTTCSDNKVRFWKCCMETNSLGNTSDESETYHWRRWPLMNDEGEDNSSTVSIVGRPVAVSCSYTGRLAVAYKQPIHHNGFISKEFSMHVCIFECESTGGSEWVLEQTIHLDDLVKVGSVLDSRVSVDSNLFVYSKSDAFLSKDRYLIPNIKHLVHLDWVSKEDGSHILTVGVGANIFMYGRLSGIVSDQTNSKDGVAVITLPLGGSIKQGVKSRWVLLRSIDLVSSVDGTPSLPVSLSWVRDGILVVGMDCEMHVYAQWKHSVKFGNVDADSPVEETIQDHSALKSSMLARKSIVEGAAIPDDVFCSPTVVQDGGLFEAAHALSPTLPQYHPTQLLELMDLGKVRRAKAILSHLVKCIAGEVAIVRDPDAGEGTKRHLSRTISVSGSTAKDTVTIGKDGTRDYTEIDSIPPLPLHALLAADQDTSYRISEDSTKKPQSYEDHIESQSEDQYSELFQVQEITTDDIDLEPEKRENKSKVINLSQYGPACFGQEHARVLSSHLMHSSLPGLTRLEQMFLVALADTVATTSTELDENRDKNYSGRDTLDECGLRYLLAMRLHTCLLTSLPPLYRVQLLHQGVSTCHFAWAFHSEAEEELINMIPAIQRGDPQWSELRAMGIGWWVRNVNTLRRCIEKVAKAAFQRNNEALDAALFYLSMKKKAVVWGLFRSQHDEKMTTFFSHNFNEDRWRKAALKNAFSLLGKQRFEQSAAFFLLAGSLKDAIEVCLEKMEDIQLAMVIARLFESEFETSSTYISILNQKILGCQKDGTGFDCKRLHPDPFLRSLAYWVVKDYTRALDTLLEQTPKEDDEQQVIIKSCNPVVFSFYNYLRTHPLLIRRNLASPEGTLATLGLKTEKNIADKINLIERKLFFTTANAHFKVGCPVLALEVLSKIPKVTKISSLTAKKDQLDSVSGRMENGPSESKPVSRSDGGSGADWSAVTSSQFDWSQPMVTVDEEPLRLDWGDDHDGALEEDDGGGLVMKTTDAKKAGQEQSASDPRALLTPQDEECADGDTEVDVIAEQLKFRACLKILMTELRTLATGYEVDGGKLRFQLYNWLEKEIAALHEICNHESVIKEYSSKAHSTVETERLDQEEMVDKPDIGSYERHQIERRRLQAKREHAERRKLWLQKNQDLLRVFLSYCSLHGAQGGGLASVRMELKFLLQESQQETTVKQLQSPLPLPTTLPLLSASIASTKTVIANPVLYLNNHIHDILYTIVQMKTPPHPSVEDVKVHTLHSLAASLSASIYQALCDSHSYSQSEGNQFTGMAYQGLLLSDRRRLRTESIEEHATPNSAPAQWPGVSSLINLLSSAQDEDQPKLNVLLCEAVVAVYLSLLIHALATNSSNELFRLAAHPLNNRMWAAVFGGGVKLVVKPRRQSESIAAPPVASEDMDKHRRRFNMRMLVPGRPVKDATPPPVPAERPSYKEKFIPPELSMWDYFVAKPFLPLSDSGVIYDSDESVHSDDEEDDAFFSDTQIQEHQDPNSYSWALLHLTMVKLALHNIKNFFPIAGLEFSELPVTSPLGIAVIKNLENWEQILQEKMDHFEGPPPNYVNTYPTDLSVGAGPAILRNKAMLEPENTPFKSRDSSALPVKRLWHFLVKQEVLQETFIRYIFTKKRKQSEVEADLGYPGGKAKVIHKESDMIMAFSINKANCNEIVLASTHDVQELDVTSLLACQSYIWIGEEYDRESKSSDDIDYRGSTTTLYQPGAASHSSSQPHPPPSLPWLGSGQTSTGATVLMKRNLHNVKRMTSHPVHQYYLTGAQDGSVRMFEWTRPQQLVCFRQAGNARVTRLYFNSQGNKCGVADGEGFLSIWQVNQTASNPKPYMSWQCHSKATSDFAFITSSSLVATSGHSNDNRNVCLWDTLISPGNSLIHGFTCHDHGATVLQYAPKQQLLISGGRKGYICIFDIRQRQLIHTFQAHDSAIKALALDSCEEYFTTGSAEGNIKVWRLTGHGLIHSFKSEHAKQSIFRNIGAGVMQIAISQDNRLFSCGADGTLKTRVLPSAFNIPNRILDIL

Target: mouse Chek2-Flag (Checkpoint kinase 2, FLAG-tagged, overexpressed in GL261 glioma cells) (mouse) (UniProt Q9Z265)
Assay: affinity purification with mass spectrometry

With “DmX-like protein 2 (DMXL2) (from UniProt Q8BPN8 1-3032)” the binding was “binds”.

B1: vesicular glutamate transporter 2 (Slc17a6) (protein, UniProt Q8BLE7 1-582)
chain: MESVKQRILAPGKEGIKNFAGKSLGQIYRVLEKKQDNRETIELTEDGKPLEVPEKKAPLCDCTCFGLPRRYIIAIMSGLGFCISFGIRCNLGVAIVDMVNNSTIHRGGKVIKEKAKFNWDPETVGMIHGSFFWGYIITQIPGGYIASRLAANRVFGAAILLTSTLNMLIPSAARVHYGCVIFVRILQGLVEGVTYPACHGIWSKWAPPLERSRLATTSFCGSYAGAVIAMPLAGILVQYTGWSSVFYVYGSFGMVWYMFWLLVSYESPAKHPTITDEERRYIEESIGESANLLGAMEKFKTPWRKFFTSMPVYAIIVANFCRSWTFYLLLISQPAYFEEVFGFEISKVGMLSAVPHLVMTIIVPIGGQIADFLRSKQILSTTTVRKIMNCGGFGMEATLLLVVGYSHTRGVAISFLVLAVGFSGFAISGFNVNHLDIAPRYASILMGISDGVGTLSGMVCPIIVGAMTKNKSREEWQYVFLIAALVHYGGVIFYALFASGEKQPWADPEETSEEKCGFIHEDELDEETGDITQNYINYGTTKSYGATSQENGGWPNGWEKKEEFVQEGAQDAYTYKDRDDYS
With B1 the binding was “binds”.

These are yes or no findings as the source states them, for the method shown. Binding seen in cells or lysates may run through a third protein. A yes stands for co-enrichment or nearness to the bait. Other partners may have been found.
